PubChem BioAssay AID652259, Drosophila RNAi Screening Center | 2013
The deposit covers about 22,000 reagents; this is a random part of those that have a named target and a result. In the full data, 233 (1.1%) were called active. 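Light values are raw, unnormalised plate reads; the ratio scores behind the reporter calls were not deposited.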 A plus sign joins genes that one reagent is predicted to hit. Reagent sequences are not shown. Not stated in the record: the amount of reagent, the time to read-out, the dose of the treatment.

- Aim: 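Knock-downs that push a Wingless-driven reporter up or down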 (primary screen)
- Cell system: Drosophila clone 8 imaginal disc epithelial cells
- Reagent: long dsRNA against Drosophila genes
- Treatment: pathway stimulated by co-transfected Wingless expression plasmid
- Measured: 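Firefly luciferase from a tcf-site Wingless reporter, measured alongside co-transfected Renilla luciferase that tracks transfection; pathway stimulated by a Wingless plasmid; the firefly-to-Renilla ratio is not deposited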
- Scale: firefly reporter light: higher = more Wg reporter light, before normalisation; Renilla control light: higher = more transfected or surviving cells
- Hit rule: 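Strong candidates differ from their plate mean by at least two out of four per-plate statistical tests; weak candidates meet just one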
- Meaning of the calls: active = candidate regulator (raises or lowers reporter); inactive = not a candidate

The opening 2 entries, to show the layout:
predicted target	DRSC id	firefly reporter light, replicate 1	firefly reporter light, replicate 2	Renilla control light, replicate 1	Renilla control light, replicate 2	call
gce (germ cell-expressed bHLH-PAS)	DRSC19613	20341		12732		inactive
gce (germ cell-expressed bHLH-PAS)	DRSC19974	11315		7975		inactive

The listing, repeating the preview:
predicted target	DRSC id	firefly reporter light, replicate 1	firefly reporter light, replicate 2	Renilla control light, replicate 1	Renilla control light, replicate 2	call
gce (germ cell-expressed bHLH-PAS)	DRSC19613	20341		12732		inactive
gce (germ cell-expressed bHLH-PAS)	DRSC19974	11315		7975		inactive
CG11409	DRSC18579	1677	4216	1220	1250	inactive
Cht8 (Chitinase 8)	DRSC04546	3420	6074	890	2685	inactive
CG10996	DRSC19363	27048		16896		inactive
NimC3 (Nimrod C3)	DRSC03556	3174	10672	1666	4901	inactive
NimC3 (Nimrod C3)	DRSC22528	6.29e5	6.67e5	2.71e5	1.77e5	inactive
BaraA1 + BaraA2	DRSC05417	20096		13437		inactive
CG9646	DRSC07342	5829		1556		inactive
rngo (rings lost)	DRSC19903	5143		1226		inactive
CG13049	DRSC09930	8752		3607		inactive
CG4462	DRSC15583	2140	5792	1031	1643	inactive
CR33317 (pseudo)	DRSC02653	3399	9260	1120	2964	inactive
Nf1 (Neurofibromin 1)	DRSC16758	1201	5165	528	2148	inactive
CG33286	DRSC11691	20240		6802		inactive
Acsl (Acyl-CoA synthetase long-chain)	DRSC07252	7581		3019		inactive
Hex-t1 (Hexokinase testis 1)	DRSC16701	21792		17174		inactive
Nup43 (Nucleoporin 43kD)	DRSC16279	20113		4003		inactive
CG8476	DRSC16426	14579		2653		inactive
tmod (tropomodulin)	DRSC13993	3400		1170		inactive
tmod (tropomodulin)	DRSC14314	5280		2720		inactive
tmod (tropomodulin)	DRSC15076	11752		3497		inactive
tmod (tropomodulin)	DRSC17062	2086	3835	1325	584	inactive
CG12376	DRSC06144	16611		6441		inactive
CG6230	DRSC01989	7545		2835		inactive
CycJ (Cyclin J)	DRSC08653	3177		1322		inactive
tous (testes of unusual size)	DRSC04464	8101		1795		inactive
CG3894	DRSC01762	18280		9687		inactive
CG3894	DRSC04012	19568		10050		inactive
CG3894	DRSC04429	6349	13744	1376	3986	inactive
